PubChem BioAssay AID1259308 | NCATS – 2017

- Assay: 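Genes whose loss raises luciferase production in HEK293 cells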 (primary screen)
- Cells: human HEK293 embryonic kidney cells stably expressing firefly luciferase (HEK-CMV-Luc2-Hygro)
- Reagent: single siRNA against human genes, 0.8 pmol siRNA per well
- Timing: 72 h
- Measurement: 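Reporter luminescence and viable-cell signal on separate replicate plates, given as percent of non-targeting control and median/MAD z-scores, plus per-cell luciferase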
- Scale: total luciferase, z-score and total luciferase, % of control: higher = more reporter protein produced; luciferase per cell, z-score: higher = more reporter output per viable cell; viable cells, % of control: higher = more viable cells
- Active means: 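An siRNA counts as active if its total luciferase robust z-score exceeds 3; genes with two or more such siRNAs out of three were retested with fresh siRNAs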
- Meaning of the calls: active = raised luciferase; inactive = no rise
The deposit covers about 59,000 reagents; this is a part drawn at random. Over the whole deposit, about 1,510 (2.6%) were called active. 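Calls use total luciferase alone and ignore viability, so some active siRNAs may act by altering cell number.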 Unmarked entries are inactive. Reagents against one gene are numbered here.

no.	target	reagent	total luciferase, z-score	total luciferase, % of control	luciferase per cell, z-score	viable cells, % of control
1	A2ML1 (alpha-2-macroglobulin like 1)	1	-0.0681	80.5	0.091	87.9
2	A2ML1 (alpha-2-macroglobulin like 1)	2	-0.341	75.1	-0.825	104
3	A2ML1 (alpha-2-macroglobulin like 1)	3	1.21	106	0.201	112
4	SUCLA2 (succinate-CoA ligase ADP-forming subunit beta)	1	-1.28	56.4	-1.1	84.3
5	SUCLA2 (succinate-CoA ligase ADP-forming subunit beta)	2	0.304	87.9	0.16	94.2
6	SUCLA2 (succinate-CoA ligase ADP-forming subunit beta)	3	-0.25	76.9	0.13	83.1
7	HTRA4 (HtrA serine peptidase 4)	1	-0.14	79.1	-0.391	98
8	HTRA4 (HtrA serine peptidase 4)	2	0.107	84	-0.299	102
9	HTRA4 (HtrA serine peptidase 4)	3	-0.281	76.3	-0.486	96.9
10	FAM78B (family with sequence similarity 78 member B)	1	-0.857	64.8	-0.419	80.9
11	FAM78B (family with sequence similarity 78 member B)	2	-0.247	77	-0.236	91.5
12	FAM78B (family with sequence similarity 78 member B)	3	-1.5	52.1	0.0655	57.2
13	ZNF423 (zinc finger protein 423)	1	-1.56	50.8	-1.22	78.3
14	ZNF423 (zinc finger protein 423)	2	-1.74	47.2	-0.995	68.6
15	ZNF423 (zinc finger protein 423)	3	1.53	112	1.14	93
16	IFI44L (interferon induced protein 44 like)	1	-0.0923	80	-0.448	101
17	IFI44L (interferon induced protein 44 like)	2	0.145	84.8	-0.138	98.2
18	IFI44L (interferon induced protein 44 like)	3	0.216	86.2	-0.32	105
19	SLC39A6	1	0.0517	82.9	-0.646	110
20	SLC39A6	2	-1.6	50	-1.86	91.1
21	SLC39A6	3	-1.19	58.3	-1.13	87.7
22	ZC3H3 (zinc finger CCCH-type containing 3)	1	-0.217	77.6	1.76	54.5
23	ZC3H3 (zinc finger CCCH-type containing 3)	2	-0.107	79.8	0.0429	88.1
24	ZC3H3 (zinc finger CCCH-type containing 3)	3	0.382	89.5	0.216	94.5
25	THPO (thrombopoietin)	1	-0.146	79	-0.737	107
26	THPO (thrombopoietin)	2	-2.69	28.5	-3.8	86.6
27	THPO (thrombopoietin)	3	-0.922	63.6	-1.18	97

9 consecutive entries from above:
no.	target	reagent	total luciferase, z-score	total luciferase, % of control	luciferase per cell, z-score	viable cells, % of control
4	SUCLA2 (succinate-CoA ligase ADP-forming subunit beta)	1	-1.28	56.4	-1.1	84.3
5	SUCLA2 (succinate-CoA ligase ADP-forming subunit beta)	2	0.304	87.9	0.16	94.2
6	SUCLA2 (succinate-CoA ligase ADP-forming subunit beta)	3	-0.25	76.9	0.13	83.1
7	HTRA4 (HtrA serine peptidase 4)	1	-0.14	79.1	-0.391	98
8	HTRA4 (HtrA serine peptidase 4)	2	0.107	84	-0.299	102
9	HTRA4 (HtrA serine peptidase 4)	3	-0.281	76.3	-0.486	96.9
10	FAM78B (family with sequence similarity 78 member B)	1	-0.857	64.8	-0.419	80.9
11	FAM78B (family with sequence similarity 78 member B)	2	-0.247	77	-0.236	91.5
12	FAM78B (family with sequence similarity 78 member B)	3	-1.5	52.1	0.0655	57.2

Continued:
no.	target	reagent	total luciferase, z-score	total luciferase, % of control	luciferase per cell, z-score	viable cells, % of control
28	CACNA2D3	1	0.317	88.2	-0.0848	101
29	CACNA2D3	2	-0.577	70.4	0.373	71.3
30	CACNA2D3	3	0.242	86.7	-0.648	115
31	C1D (C1D nuclear receptor corepressor)	1	-1.1	60	-1.03	88
32	C1D (C1D nuclear receptor corepressor)	2	-1.04	61.2	-0.242	72.9
33	C1D (C1D nuclear receptor corepressor)	3	0.807	97.9	0.861	87.3
34	RALGAPB (Ral GTPase activating protein non-catalytic subunit beta)	1	0.434	90.5	-0.332	110
35	RALGAPB (Ral GTPase activating protein non-catalytic subunit beta)	2	-0.542	71.1	-0.295	85.9
36	RALGAPB (Ral GTPase activating protein non-catalytic subunit beta)	3	1.19	105	0.994	90.7
37	RPL41 (ribosomal protein L41)	1	-0.239	77.1	-0.0514	87.4
38	RPL41 (ribosomal protein L41)	2	-1.47	52.7	0.855	47
39	RPL41 (ribosomal protein L41)	3	-0.0622	80.7	-1.16	122
40	PRAMEF5 (PRAME family member 5)	1	0.612	94.1	2.82	50.1
41	PRAMEF5 (PRAME family member 5)	2	-0.289	76.1	0.0624	83.7
42	PRAMEF5 (PRAME family member 5)	3	-1.01	61.7	-0.732	83.6
43	RIN2 (Ras and Rab interactor 2)	1	0.0936	83.7	-0.548	108
44	RIN2 (Ras and Rab interactor 2)	2	-0.888	64.2	-0.606	84.2
45	RIN2 (Ras and Rab interactor 2)	3	-0.751	67	-0.193	78.7
46	EIF2AK4 (eukaryotic translation initiation factor 2 alpha kinase 4)	1	-0.966	62.7	-1.21	96.3
47	EIF2AK4 (eukaryotic translation initiation factor 2 alpha kinase 4)	2	-1.43	53.5	-1.91	98.8
48	EIF2AK4 (eukaryotic translation initiation factor 2 alpha kinase 4)	3	-0.604	69.9	0.483	68.8
49	OSBPL5 (oxysterol binding protein like 5)	1	1.11	104	0.499	102
50	OSBPL5 (oxysterol binding protein like 5)	2	0.343	88.7	-0.0506	100
51	OSBPL5 (oxysterol binding protein like 5)	3	1.26	107	0.389	108
52	NOL6 (nucleolar protein 6)	1	-1.72	47.7	-1.38	76.7
53	NOL6 (nucleolar protein 6)	2	-0.575	70.4	-0.126	81.4
54	NOL6 (nucleolar protein 6)	3	-1.03	61.3	-0.36	75.3
55	IRX6 (iroquois homeobox 6)	1	-0.43	73.3	0.516	71.5
56	IRX6 (iroquois homeobox 6)	2	-0.269	76.5	-0.437	96
57	IRX6 (iroquois homeobox 6)	3	0.346	88.8	0.155	95.2
